Reference: PubChem BioAssay AID270 (DTP/NCI, 2004)
The list shows only some results of the screen, not a fair sample: it is rich in T/C values a quarter to a half above the control, in often repeated tests (any T/C) and in doses without a T/C. Further doses and runs are listed elsewhere. T/C: endpoint of the treated group in % of that of the vehicle group. Some entries give survivors of the animals treated and no T/C: the source files T/C as zero there, which appears to mark a toxic dose or a test without result, not a measured value. Some doses without a T/C left all or most animals alive at the check, yet need not have been tolerated: the source hardly ever lists a survival T/C far under the control, and the zero likely stands for such cases as well. Counts of survivors are from the toxicity check (mostly the fifth day) where no day follows; animals may have died later. Schedules are NCI's codes, taken here to give the interval after Q, in days (D) or hours (H), and the number of doses after X. Marks such as (2×) count equal records among those shown. Some entries were tested several times; the values are given in rising order. Where survival is the endpoint, this PubChem deposit counts one and a half times the control or more as active, and values a quarter to a half above the control carry no call in these data; other NCI protocols may use other cut-offs. Some T/C values are followed by the survivors on the day toxicity was checked, most often the fifth; without a count, all were alive then.

Test system: BDF1 mice, s.c. Lewis lung carcinoma, T/C %
Assay: NCI In Vivo Anticancer Drug Screen. Data for tumor model Lewis Lung Carcinoma (subcutaneous) in B6D2F1 (BDF1) mice
Details: vehicle: saline
How it was run: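 The value reflects a ratio in which the treated cohort's survival time or tumour size is compared against mice receiving only vehicle.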

[1] = T/C endpoint: median survival time, dose: 50.0 mg/kg/injection, schedule: Q01DX009 (ip), higher T/C = longer survival

## O=P1(N(CCCl)CCCl)NCCCO1 (centres undefined)
T/C endpoint: mean tumor weight (est.), dose: 65.0 mg/kg/injection, schedule: Q01DX009 (ip), higher T/C = larger tumour
  survivor count: 4 of 8
T/C endpoint: mean tumor weight (est.), dose: 300.0 mg/kg/injection, schedule: Q01DX001 (ip), higher T/C = larger tumour
  survivor count: 2 of 8
T/C endpoint: mean tumor weight, dose: 90.0 mg/kg/injection, schedule: Q01DX011 (ip), higher T/C = larger tumour
  survivor count: 5 of 10
T/C endpoint: median survival time, dose: 5.0 mg/kg/injection, schedule: Q01DX001 (ip), higher T/C = longer survival
  survivor count: 10 of 10
T/C endpoint: median survival time, dose: 5.0 mg/kg/injection, schedule: Q01DX009 (ip), higher T/C = longer survival
  survivor count: 10 of 10
T/C endpoint: median survival time, dose: 10.0 mg/kg/injection, schedule: Q01DX009 (ip), higher T/C = longer survival
  survivor count: 10 of 10
T/C endpoint: median survival time, dose: 12.5 mg/kg/injection, schedule: Q02DX009 (ip), higher T/C = longer survival
  T/C: 125 % of control
T/C endpoint: median survival time, dose: 20.0 mg/kg/injection, schedule: Q01DX005 (ip), higher T/C = longer survival
  T/C: 146 % of control
T/C endpoint: median survival time, dose: 20.0 mg/kg/injection, schedule: Q01DX009 (ip), higher T/C = longer survival
  survivor count: 10 of 10
T/C endpoint: median survival time, dose: 23.0 mg/kg/injection, schedule: Q01DX009 (ip), higher T/C = longer survival
  T/C: 129 % of control
T/C endpoint: median survival time, dose: 25.0 mg/kg/injection, schedule: Q01DX001 (ip), higher T/C = longer survival
  T/C: 134 % of control
T/C endpoint: median survival time, dose: 25.0 mg/kg/injection, schedule: Q01DX009 (ip), evaluated on day 45, higher T/C = longer survival
  T/C: 137 % of control
T/C endpoint: median survival time, dose: 25.0 mg/kg/injection, schedule: Q01DX009 (ip), evaluated on day 60, higher T/C = longer survival
  T/C: 91, 113, 128, 145 % of control
T/C endpoint: median survival time, dose: 25.0 mg/kg/injection, schedule: Q02DX009 (ip), higher T/C = longer survival
  T/C: 133 % of control
T/C endpoint: median survival time, dose: 30.0 mg/kg/injection, schedule: Q01DX009 (ip), higher T/C = longer survival
  survivor count: 10 of 10
T/C endpoint: median survival time, dose: 30.0 mg/kg/injection, schedule: Q01DX011 (ip), higher T/C = longer survival
  survivor count: 10 of 10
T/C endpoint: median survival time, dose: 39.0 mg/kg/injection, schedule: Q01DX009 (ip), higher T/C = longer survival
  survivor count: 8 of 8
T/C endpoint: median survival time, dose: 40.0 mg/kg/injection, schedule: Q01DX009 (ip), higher T/C = longer survival
  survivor count: 10 of 10 (2×)
T/C endpoint: median survival time, dose: 40.0 mg/kg/injection, schedule: Q01DX011 (ip), higher T/C = longer survival
  survivor count: 10 of 10
T/C endpoint: median survival time, dose: 50.0 mg/kg/injection, schedule: Q01DX001 (ip), higher T/C = longer survival
  T/C: 142 % of control
[1]
  T/C: 106, 130, 157, 183 % of control [9 of 10 alive]
  survivor count: 10 of 10
T/C endpoint: median survival time, dose: 50.0 mg/kg/injection, schedule: Q02DX009 (ip), higher T/C = longer survival
  survivor count: 10 of 10
T/C endpoint: median survival time, dose: 53.0 mg/kg/injection, schedule: Q04DX004 (ip), higher T/C = longer survival
  T/C: 141 % of control
T/C endpoint: median survival time, dose: 65.0 mg/kg/injection, schedule: Q01DX009 (ip), higher T/C = longer survival
  survivor count: 4 of 8, 6 of 8, 5 of 6
T/C endpoint: median survival time, dose: 66.0 mg/kg/injection, schedule: Q01DX009 (ip), higher T/C = longer survival
  survivor count: 10 of 10
T/C endpoint: median survival time, dose: 72.0 mg/kg/injection, schedule: Q01DX001 (ip), higher T/C = longer survival
  T/C: 130 % of control
T/C endpoint: median survival time, dose: 75.0 mg/kg/injection, schedule: Q01DX001 (ip), higher T/C = longer survival
  T/C: 97, 102, 135, 137 % of control
T/C endpoint: median survival time, dose: 75.0 mg/kg/injection, schedule: Q02DX009 (ip), higher T/C = longer survival
  survivor count: 10 of 10
T/C endpoint: median survival time, dose: 80.0 mg/kg/injection, schedule: Q01DX009 (ip), higher T/C = longer survival
  survivor count: 10 of 10
T/C endpoint: median survival time, dose: 80.0 mg/kg/injection, schedule: Q04DX004 (ip), higher T/C = longer survival
  T/C: 135 % of control
T/C endpoint: median survival time, dose: 90.0 mg/kg/injection, schedule: Q01DX001 (ip), higher T/C = longer survival
  T/C: 125 and 126 % of control
T/C endpoint: median survival time, dose: 100.0 mg/kg/injection, schedule: Q01DX001 (ip), evaluated on day 49, higher T/C = longer survival
  T/C: 143 % of control
T/C endpoint: median survival time, dose: 100.0 mg/kg/injection, schedule: Q01DX001 (ip), evaluated on day 60, higher T/C = longer survival
  T/C: 142 and 143 % of control
T/C endpoint: median survival time, dose: 100.0 mg/kg/injection, schedule: Q01DX004 (ip), higher T/C = longer survival
  survivor count: 5 of 8
T/C endpoint: median survival time, dose: 100.0 mg/kg/injection, schedule: Q01DX009 (ip), higher T/C = longer survival
  survivor count: 8 of 10, 10 of 10, 8 of 8
T/C endpoint: median survival time, dose: 100.0 mg/kg/injection, schedule: Q11DX002 (ip), higher T/C = longer survival
  T/C: 137 % of control [8 of 9 alive]
T/C endpoint: median survival time, dose: 108.0 mg/kg/injection, schedule: Q01DX001 (ip), evaluated on day 6, higher T/C = longer survival
  T/C: 130 and 364 % of control
T/C endpoint: median survival time, dose: 108.0 mg/kg/injection, schedule: Q01DX001 (ip), evaluated on day 17, higher T/C = longer survival
  T/C: 132 % of control
T/C endpoint: median survival time, dose: 108.0 mg/kg/injection, schedule: Q01DX001 (ip), evaluated on day 50, higher T/C = longer survival
  T/C: 113 % of control [8 of 10 alive on day 50]
T/C endpoint: median survival time, dose: 108.0 mg/kg/injection, schedule: Q01DX001 (ip), evaluated on day 52, higher T/C = longer survival
  T/C: 125 % of control
T/C endpoint: median survival time, dose: 108.0 mg/kg/injection, schedule: Q01DX001 (ip), evaluated on day 60, higher T/C = longer survival
  T/C: 135 % of control
T/C endpoint: median survival time, dose: 108.0 mg/kg/injection, schedule: Q01DX001 (ip), higher T/C = longer survival
  survivor count: 3 of 8 on day 100
T/C endpoint: median survival time, dose: 120.0 mg/kg/injection, schedule: Q01DX001 (ip), evaluated on day 5, higher T/C = longer survival
  T/C: 132 and 149 % of control
T/C endpoint: median survival time, dose: 120.0 mg/kg/injection, schedule: Q01DX001 (ip), evaluated on day 12, higher T/C = longer survival
  T/C: 115 and 123 % of control
T/C endpoint: median survival time, dose: 120.0 mg/kg/injection, schedule: Q04DX004 (ip), higher T/C = longer survival
  T/C: 135 % of control
T/C endpoint: median survival time, dose: 150.0 mg/kg/injection, schedule: Q01DX001 (ip), evaluated on day 14, higher T/C = longer survival
  T/C: 109 % of control
T/C endpoint: median survival time, dose: 150.0 mg/kg/injection, schedule: Q01DX001 (ip), evaluated on day 15, higher T/C = longer survival
  T/C: 130 % of control
T/C endpoint: median survival time, dose: 150.0 mg/kg/injection, schedule: Q01DX001 (ip), evaluated on day 60, higher T/C = longer survival
  T/C: 109, 152, 167 [9 of 10 alive], 171 % of control
T/C endpoint: median survival time, dose: 150.0 mg/kg/injection, schedule: Q01DX009 (ip), higher T/C = longer survival
  survivor count: 8 of 10
T/C endpoint: median survival time, dose: 180.0 mg/kg/injection, schedule: Q01DX001 (ip), evaluated on day 6, higher T/C = longer survival
  T/C: 234 and 364 % of control
T/C endpoint: median survival time, dose: 180.0 mg/kg/injection, schedule: Q01DX001 (ip), evaluated on day 17, higher T/C = longer survival
  T/C: 129 % of control
T/C endpoint: median survival time, dose: 180.0 mg/kg/injection, schedule: Q01DX001 (ip), evaluated on day 50, higher T/C = longer survival
  T/C: 167 % of control
T/C endpoint: median survival time, dose: 180.0 mg/kg/injection, schedule: Q01DX001 (ip), higher T/C = longer survival
  survivor count: 0 of 8 on day 100
T/C endpoint: median survival time, dose: 200.0 mg/kg/injection, schedule: Q01DX001 (ip), evaluated on day 5, higher T/C = longer survival
  T/C: 136 and 145 % of control
T/C endpoint: median survival time, dose: 200.0 mg/kg/injection, schedule: Q01DX001 (ip), evaluated on day 49, higher T/C = longer survival
  T/C: 200 % of control
T/C endpoint: median survival time, dose: 200.0 mg/kg/injection, schedule: Q01DX001 (ip), evaluated on day 60, higher T/C = longer survival
  T/C: 243 % of control
T/C endpoint: median survival time, dose: 200.0 mg/kg/injection, schedule: Q01DX001 (ip), higher T/C = longer survival
  survivor count: 9 of 10
T/C endpoint: median survival time, dose: 200.0 mg/kg/injection, schedule: Q04DX003 (sc), higher T/C = longer survival
  survivor count: 0 of 10 on day 58
T/C endpoint: median survival time, dose: 300.0 mg/kg/injection, schedule: Q01DX001 (ip), evaluated on day 6, higher T/C = longer survival
  T/C: 234 and 364 % of control
T/C endpoint: median survival time, dose: 300.0 mg/kg/injection, schedule: Q01DX001 (ip), evaluated on day 14, higher T/C = longer survival
  T/C: 177 % of control
T/C endpoint: median survival time, dose: 300.0 mg/kg/injection, schedule: Q01DX001 (ip), evaluated on day 17, higher T/C = longer survival
  T/C: 143 % of control
T/C endpoint: median survival time, dose: 300.0 mg/kg/injection, schedule: Q01DX001 (ip), evaluated on day 50, higher T/C = longer survival
  T/C: 167 % of control
T/C endpoint: median survival time, dose: 300.0 mg/kg/injection, schedule: Q01DX001 (ip), evaluated on day 52, higher T/C = longer survival
  T/C: 100 % of control [7 of 8 alive]
T/C endpoint: median survival time, dose: 300.0 mg/kg/injection, schedule: Q01DX001 (ip), evaluated on day 60, higher T/C = longer survival
  T/C: 131, 157, 171 % of control
T/C endpoint: median survival time, dose: 300.0 mg/kg/injection, schedule: Q01DX001 (ip), higher T/C = longer survival
  survivor count: 0 of 8 on day 100, 2 of 8, 8 of 10
T/C endpoint: median survival time, dose: 300.0 mg/kg/injection, schedule: Q09DX002 (ip), higher T/C = longer survival
  T/C: 125 % of control
T/C endpoint: median survival time, dose: 400.0 mg/kg/injection, schedule: Q01DX001 (ip), higher T/C = longer survival
  survivor count: 6 of 10 on day 49 and 10 of 10
T/C endpoint: median tumor weight (est.), dose: 25.0 mg/kg/injection, schedule: Q01DX009 (ip), higher T/C = larger tumour
  survivor count: 6 of 10
